Assay results from PMC10599278.

Protein sequences, listed by entry. Tags and fused reporters are not part of them.
UniProt O00425: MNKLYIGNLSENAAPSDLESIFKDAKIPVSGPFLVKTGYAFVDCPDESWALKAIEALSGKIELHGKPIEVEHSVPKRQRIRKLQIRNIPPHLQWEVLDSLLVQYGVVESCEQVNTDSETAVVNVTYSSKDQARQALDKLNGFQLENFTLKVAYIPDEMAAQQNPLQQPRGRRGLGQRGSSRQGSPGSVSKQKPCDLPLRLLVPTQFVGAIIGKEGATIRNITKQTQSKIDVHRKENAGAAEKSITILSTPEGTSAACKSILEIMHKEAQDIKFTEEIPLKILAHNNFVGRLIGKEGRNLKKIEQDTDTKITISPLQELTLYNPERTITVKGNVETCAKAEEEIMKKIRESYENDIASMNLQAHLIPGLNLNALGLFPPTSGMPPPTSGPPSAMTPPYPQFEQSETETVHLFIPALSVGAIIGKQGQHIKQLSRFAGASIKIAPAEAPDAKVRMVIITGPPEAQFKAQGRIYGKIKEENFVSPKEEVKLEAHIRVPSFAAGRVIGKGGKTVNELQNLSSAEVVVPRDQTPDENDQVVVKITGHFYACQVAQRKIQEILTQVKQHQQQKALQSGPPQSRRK
UniProt Q7Z6Z7: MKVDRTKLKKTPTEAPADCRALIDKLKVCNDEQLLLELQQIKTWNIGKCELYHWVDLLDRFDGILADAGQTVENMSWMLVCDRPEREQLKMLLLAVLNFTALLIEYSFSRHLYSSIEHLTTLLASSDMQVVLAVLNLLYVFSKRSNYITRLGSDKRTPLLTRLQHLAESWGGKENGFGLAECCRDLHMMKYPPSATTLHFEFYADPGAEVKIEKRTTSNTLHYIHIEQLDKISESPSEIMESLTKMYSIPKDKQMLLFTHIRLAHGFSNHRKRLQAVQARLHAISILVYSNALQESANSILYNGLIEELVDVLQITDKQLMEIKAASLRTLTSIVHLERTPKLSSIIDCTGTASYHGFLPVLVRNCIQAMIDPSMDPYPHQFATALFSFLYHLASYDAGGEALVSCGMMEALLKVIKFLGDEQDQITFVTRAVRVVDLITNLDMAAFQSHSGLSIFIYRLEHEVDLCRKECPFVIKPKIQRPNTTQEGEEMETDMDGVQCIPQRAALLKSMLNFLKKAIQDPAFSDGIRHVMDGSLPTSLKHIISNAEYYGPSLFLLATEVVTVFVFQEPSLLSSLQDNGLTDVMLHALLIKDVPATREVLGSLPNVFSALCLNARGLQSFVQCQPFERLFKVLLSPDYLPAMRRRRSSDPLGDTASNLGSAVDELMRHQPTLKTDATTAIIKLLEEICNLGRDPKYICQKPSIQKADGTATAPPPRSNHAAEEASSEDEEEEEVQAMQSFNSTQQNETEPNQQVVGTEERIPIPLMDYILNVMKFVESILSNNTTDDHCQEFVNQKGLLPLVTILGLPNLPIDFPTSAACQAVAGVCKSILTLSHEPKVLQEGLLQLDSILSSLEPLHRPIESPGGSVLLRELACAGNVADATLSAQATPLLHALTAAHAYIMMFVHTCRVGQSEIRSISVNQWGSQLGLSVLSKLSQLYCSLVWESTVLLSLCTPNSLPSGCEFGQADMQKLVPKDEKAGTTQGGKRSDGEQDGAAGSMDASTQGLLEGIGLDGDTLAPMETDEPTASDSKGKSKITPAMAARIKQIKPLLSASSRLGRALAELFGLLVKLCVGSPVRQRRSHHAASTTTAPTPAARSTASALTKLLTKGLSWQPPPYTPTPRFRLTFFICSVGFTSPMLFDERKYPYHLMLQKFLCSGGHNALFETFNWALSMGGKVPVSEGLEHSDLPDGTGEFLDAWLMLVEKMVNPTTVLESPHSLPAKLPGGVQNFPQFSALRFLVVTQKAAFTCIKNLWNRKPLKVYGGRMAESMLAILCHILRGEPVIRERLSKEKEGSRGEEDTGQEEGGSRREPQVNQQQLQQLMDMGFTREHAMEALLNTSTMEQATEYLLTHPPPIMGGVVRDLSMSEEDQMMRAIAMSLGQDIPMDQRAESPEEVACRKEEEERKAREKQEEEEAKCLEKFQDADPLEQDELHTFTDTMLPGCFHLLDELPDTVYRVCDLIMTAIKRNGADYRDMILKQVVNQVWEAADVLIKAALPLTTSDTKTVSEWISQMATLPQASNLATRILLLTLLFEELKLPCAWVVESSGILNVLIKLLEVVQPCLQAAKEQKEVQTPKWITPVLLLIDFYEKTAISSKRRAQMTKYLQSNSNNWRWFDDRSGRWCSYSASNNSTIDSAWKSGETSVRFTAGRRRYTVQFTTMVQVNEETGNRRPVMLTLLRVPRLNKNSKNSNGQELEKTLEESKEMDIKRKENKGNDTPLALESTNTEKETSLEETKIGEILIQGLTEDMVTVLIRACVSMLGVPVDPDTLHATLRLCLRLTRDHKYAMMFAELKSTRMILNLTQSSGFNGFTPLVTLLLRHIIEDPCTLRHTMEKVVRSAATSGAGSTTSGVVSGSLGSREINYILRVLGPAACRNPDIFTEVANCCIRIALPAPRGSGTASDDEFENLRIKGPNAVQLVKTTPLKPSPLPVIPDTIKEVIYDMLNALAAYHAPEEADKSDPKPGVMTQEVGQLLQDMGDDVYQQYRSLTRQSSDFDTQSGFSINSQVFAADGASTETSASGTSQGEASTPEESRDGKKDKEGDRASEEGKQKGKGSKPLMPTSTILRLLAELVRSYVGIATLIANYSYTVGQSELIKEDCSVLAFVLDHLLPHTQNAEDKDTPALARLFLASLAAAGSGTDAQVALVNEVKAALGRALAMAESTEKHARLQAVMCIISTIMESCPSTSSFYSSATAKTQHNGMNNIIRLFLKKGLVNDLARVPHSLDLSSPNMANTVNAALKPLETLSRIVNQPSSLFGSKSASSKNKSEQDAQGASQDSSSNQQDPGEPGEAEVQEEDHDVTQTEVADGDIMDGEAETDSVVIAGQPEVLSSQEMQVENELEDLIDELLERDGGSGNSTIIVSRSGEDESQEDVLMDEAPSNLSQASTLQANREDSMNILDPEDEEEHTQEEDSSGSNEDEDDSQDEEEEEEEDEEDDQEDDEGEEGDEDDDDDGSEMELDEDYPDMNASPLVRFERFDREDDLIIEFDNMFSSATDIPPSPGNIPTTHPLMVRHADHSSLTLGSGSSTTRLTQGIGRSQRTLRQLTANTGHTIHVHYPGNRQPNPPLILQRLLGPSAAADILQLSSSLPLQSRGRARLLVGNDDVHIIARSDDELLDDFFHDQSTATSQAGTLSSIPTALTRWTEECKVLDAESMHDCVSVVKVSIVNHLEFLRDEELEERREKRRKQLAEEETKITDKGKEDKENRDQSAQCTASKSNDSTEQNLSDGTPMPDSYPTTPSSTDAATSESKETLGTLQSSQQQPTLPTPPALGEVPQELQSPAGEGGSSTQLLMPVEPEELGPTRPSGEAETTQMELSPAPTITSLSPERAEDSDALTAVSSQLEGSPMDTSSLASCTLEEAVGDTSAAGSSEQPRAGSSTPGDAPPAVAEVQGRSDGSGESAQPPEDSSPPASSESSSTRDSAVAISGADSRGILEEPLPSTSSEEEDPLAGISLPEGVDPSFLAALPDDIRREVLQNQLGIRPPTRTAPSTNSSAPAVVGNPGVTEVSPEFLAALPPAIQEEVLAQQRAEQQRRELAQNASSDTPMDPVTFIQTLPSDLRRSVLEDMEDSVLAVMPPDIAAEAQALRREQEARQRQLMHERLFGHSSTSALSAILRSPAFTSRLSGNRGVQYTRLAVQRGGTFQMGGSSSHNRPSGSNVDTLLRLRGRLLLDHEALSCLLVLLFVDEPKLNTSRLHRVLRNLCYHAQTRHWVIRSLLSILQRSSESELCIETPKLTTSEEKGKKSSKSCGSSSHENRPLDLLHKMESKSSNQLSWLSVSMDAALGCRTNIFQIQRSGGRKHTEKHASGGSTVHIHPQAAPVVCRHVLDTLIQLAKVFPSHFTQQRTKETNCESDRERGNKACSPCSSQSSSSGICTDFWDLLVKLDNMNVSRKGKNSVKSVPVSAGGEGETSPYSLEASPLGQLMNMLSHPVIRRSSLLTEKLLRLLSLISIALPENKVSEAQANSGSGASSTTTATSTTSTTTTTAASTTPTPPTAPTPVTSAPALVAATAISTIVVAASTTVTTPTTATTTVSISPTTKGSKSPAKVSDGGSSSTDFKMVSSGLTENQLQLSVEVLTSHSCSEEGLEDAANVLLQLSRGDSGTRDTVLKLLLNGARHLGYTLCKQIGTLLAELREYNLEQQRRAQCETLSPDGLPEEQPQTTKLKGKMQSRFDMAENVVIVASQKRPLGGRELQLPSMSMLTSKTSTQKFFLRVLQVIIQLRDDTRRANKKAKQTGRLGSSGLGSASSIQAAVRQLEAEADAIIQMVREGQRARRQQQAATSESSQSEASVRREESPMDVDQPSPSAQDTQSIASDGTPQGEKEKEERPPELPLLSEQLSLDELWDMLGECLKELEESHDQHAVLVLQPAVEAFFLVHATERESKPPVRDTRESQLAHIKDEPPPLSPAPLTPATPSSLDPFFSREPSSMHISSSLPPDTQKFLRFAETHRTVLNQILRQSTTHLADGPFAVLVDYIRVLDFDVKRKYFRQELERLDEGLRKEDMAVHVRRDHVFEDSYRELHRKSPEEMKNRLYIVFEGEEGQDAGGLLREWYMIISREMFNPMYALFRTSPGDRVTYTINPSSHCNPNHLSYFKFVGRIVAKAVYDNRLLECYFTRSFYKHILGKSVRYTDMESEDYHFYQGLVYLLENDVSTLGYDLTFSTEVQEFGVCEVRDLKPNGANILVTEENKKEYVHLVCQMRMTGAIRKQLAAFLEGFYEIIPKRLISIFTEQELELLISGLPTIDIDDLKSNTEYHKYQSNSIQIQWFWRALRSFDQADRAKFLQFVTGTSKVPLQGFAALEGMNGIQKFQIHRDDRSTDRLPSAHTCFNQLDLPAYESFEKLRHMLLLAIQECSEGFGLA
UniProt Q9Y4X5: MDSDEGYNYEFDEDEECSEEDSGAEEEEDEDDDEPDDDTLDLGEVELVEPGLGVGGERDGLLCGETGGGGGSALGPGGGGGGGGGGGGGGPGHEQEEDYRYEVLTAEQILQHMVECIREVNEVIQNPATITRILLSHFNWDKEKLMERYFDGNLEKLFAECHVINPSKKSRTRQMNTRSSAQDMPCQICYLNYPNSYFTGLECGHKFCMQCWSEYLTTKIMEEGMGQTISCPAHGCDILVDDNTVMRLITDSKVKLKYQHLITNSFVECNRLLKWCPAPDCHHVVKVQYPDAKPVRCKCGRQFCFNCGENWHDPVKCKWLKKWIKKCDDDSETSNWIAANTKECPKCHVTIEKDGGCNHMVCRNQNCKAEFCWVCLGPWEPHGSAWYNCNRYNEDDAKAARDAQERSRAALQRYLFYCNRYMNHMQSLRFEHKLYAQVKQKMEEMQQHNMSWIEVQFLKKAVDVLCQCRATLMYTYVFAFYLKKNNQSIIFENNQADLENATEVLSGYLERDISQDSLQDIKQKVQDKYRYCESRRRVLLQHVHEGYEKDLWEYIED

What follows are substances tested against GFP-IGF2BP3 (human) (UniProt O00425) (assay: affinity purification with mass spectrometry; HeLa cells co-transfected with GFP-IGF2BP3, Flag-Parkin and HA-ubiquitin; lysates immunoprecipitated with GFP-Trap Agarose; LC-MS/MS).

binding, binds:
HUWE1 (from UniProt Q7Z6Z7 1-4374) (enzyme)
ARIH1 (from UniProt Q9Y4X5 1-557) (enzyme)
HECTD1 (from UniProt Q9ULT8 1-2610) (enzyme)

These are yes or no findings as the source states them, for the method shown. In cells and extracts the contact can be indirect. Here binding means that the protein was enriched with, or labelled near, the bait; the list need not be complete.
